The test system of one test is APOL1. Briefly: RNA-seq of APOL1 expression in compound-treated primary human hepatocytes. It is filed as cell-based. The settings on record: RNAseq, 10 uM dose (Table 20). As to the method: (§1) Human hepatocytes were obtained from two donors from Massachusetts General Hospital, namely MGH54 and MGH63, and one donor from Lonza, namely HUM4111B. Cryopreserved hepatocytes were cultured in plating media for 16 hours, transferred to maintenance media for 4 hours. Cultured on serum-free media for 2 hours, then a compound was added. The hepatocytes were maintained on the serum-free media for 16 hours prior to gene expression analysis. Primary human hepatocytes were stored in the vapor phase of a liquid nitrogen freezer (about −130° C.).
(§2) Human hepatocytes cultured as described above were plated in 24-well format, adding 375,000 cells per well in a volume of 500 ul plating medium. Four hours before treatment, cells were washed with PBS and the medium was changed to either: fresh maintenance medium (complete) or modified maintenance medium.
(§3) Compound stocks were prepared at 1000× final concentration and added in a 2-step dilution to the medium to reduce risk of a compound precipitating out of solution when added to the cells, and to ensure reasonable pipetting volumes. […]
(§4) For mRNA isolation and library prep, the NEBNext Poly(A) mRNA Magnetic Isolation Module and Directional Prep kit was used. RNA isolated from cells above was quantified, and prepared in […] of each sample in 50 μl of nuclease-free water. […]

Another test concerns ANGPTL3. Briefly: RNA-seq of ANGPTL3 expression in compound-treated primary human hepatocytes. It is filed as cell-based. The settings on record: additional compounds (Table 13). As to the method: as §1, §2, §3, §4

The values below come from patent US20210161997A1, “TREATING DISEASES VIA TARGETED MODULATION OF GENE SIGNALING NETWORKS” (Camp4 Therapeutics Corporation, priority 2018, published 2021).

Each structure is given as a SMILES string.

Regarding `Cc1cc(/C=C/c2ccc3cc(N(C)C)ccc3[n+]2C)c(C)n1-c1ccccc1.Cc1cc(/C=C/c2ccc3cc(N(C)C)ccc3[n+]2C)c(C)n1-c1ccccc1.O=C([O-])c1cc2ccccc2c(Cc2c(O)c(C(=O)[O-])cc3ccccc23)c1O` [CPD377_Pyrvinium pamoate salt, Pyrvinium pamoate salt], the “APOL mRNA linear fold change” value in the test with APOL1 came out at 0.6507.

Regarding `Nc1nc2ccc(OC(F)(F)F)cc2s1` [Riluzole], in the test with ANGPTL3, the “ANGPTL3-LINEAR FOLD CHANGE” value is listed as 0.4763.
